# Measurements taken from PubChem BioAssay AID504834 (National Center for Advancing Translational Sciences (NCATS), 2011).
# Several values for one entry are separate records, joined by “and”; a condition that tells them apart may be missing. Equal entries are not always repeated. About 22,000 (6.9%) of roughly 320,000 compounds were called active. This list was built around the results that the source calls inconclusive (neither active nor inactive); the mix of calls is not that of the screen. The call rests on the fitted dose curve; in most records, active means well fitted inhibition curve with a large enough effect; inconclusive means small, poorly fitted or top-dose-only effect, or another doubt; inactive means no such curve, though single readings can be large or run the other way. A potency beside an inconclusive call is a rough fit, not a confirmed value. Some compounds were tested as several samples or in several runs, with calls that do not always agree.
# Assay: Primary qHTS for delayed death inhibitors of the malarial parasite plastid, 96 hour incubation
# Details: P. falciparum luciferase reporter growth; series mostly up to 28.7 µM
# In short: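 P. falciparum expressing integrated firefly luciferase, in erythrocytes at 2% hematocrit, 0.05% parasitemia, incubated with compounds 96 h at 37 C, 5% CO2. Growth inhibition read as loss of luminescence; two-generation exposure targets delayed-death apicoplast inhibitors.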
# Potency means the concentration at half of the fitted maximal effect.
row,SMILES,Potency
1,COC(=O)Cc1ccc(NC(=O)c2ccccc2Br)cc1,inactive
2,CCOC(=O)c1c(NC(C)=O)sc2c(OC)cccc12,inactive
3,CC(NC(=O)Cc1ccc([N+](=O)[O-])cc1)c1ccc2c(c1)OCO2 (stereo not drawn),inactive
4,CC(C)NC(=O)C(C)Oc1ccc(S(=O)(=O)NCc2ccc3c(c2)OCO3)cc1 (stereo not drawn),inactive
5,CCN1C(=O)/C(=C/c2cc(C)n(C)c2C)SC1=Nc1ccc(OC)cc1,"inconclusive: 18.5 µM [inhibitor, single point]"
6,COc1ccccc1CNC(=O)CSc1nc2c(oc3ccccc32)c(=O)n1CC1CCCO1 (stereo not drawn),"inconclusive: 2.33 µM [inhibitor, single point]"
7,COc1cc(/C=N/NC(=O)Cc2csc(C)n2)ccc1OCC(C)C,"inconclusive: 1.31 µM [inhibitor, single point]"
8,CN1CCC(OC(=O)Cc2ccc(Cl)cc2)CC1,"inconclusive: 18.5 µM [inhibitor, single point]"
9,S=c1nc(-c2ccccc2)c(-c2ccccc2)n[nH]1,inactive
10,Cc1cccc(N2C(=O)NC(=O)/C(=C\c3cnc(-c4ccccc4)nc3)C2=O)c1,"inconclusive: 4.15 µM [inhibitor, partial curve, poor fit]"
11,Cc1ccc(N(CC(=O)NCc2cccs2)S(=O)(=O)c2cccs2)cc1,"inconclusive: 11.7 µM [inhibitor, partial curve, poor fit]"
12,CCCc1cc(C(N)=O)c(NC(C)=O)s1,"inconclusive: 18.5 µM [inhibitor, single point]"
13,O=C(c1cccc([N+](=O)[O-])c1)N1CCN(S(=O)(=O)N2CCCCC2)CC1,"inconclusive: 14.7 µM [inhibitor, partial curve, poor fit]"
14,O=C(CC1C(=O)NCCN1Cc1cccc(F)c1F)NC1CCCCCC1 (stereo not drawn),inactive
15,COc1ccc(-c2csc3[nH]c(=S)n(-c4ccccc4)c(=O)c23)cc1OC,"inconclusive: 7.38 µM [inhibitor, single point]"
16,O=C(Nc1ccc(F)cc1)N1CCCC(c2nc3c(nnn3Cc3ccccc3Cl)c(=O)[nH]2)C1 (stereo not drawn),inactive
17,Cc1cc(C)c(S(=O)(=O)c2ccccc2C)c(N(C)C)n1,"inconclusive: 13.1 µM [inhibitor, single point]"
18,C=CC(=O)N=c1sc2ccccc2n1-c1ccccc1,"inconclusive: 18.5 µM [inhibitor, single point]"
19,O=C(CNS(=O)(=O)c1ccc(Br)s1)NCc1ccc2c(c1)OCO2,"inconclusive: 4.15 µM [inhibitor, partial curve]"
20,Cc1ccc(S(=O)(=O)CCC(=O)Nc2cccc([N+](=O)[O-])c2)cc1,inactive
21,O=C(Cc1cccs1)Nc1ccc(F)cc1,"inconclusive: 18.5 µM [inhibitor, single point]"
22,O=C(N1CCCC1)C(F)(F)Oc1ccc(F)cc1,inactive
23,COc1cc(OC)cc(-c2cc(NC(C)=O)n[nH]2)c1,inactive
24,CN(C)S(=O)(=O)N1C(=O)c2ccccc2C1=O,inactive
25,Cc1ccccc1OCC(=O)NC(C)c1ccccc1 (stereo not drawn),inactive

row,SMILES,Potency
1,O=C(O)c1ccccc1C(=O)OCCCCOC(=O)c1ccccc1C(=O)O,active: 14.7 µM
2,CN(C(=S)NC(=O)c1ccccc1Br)C1CCCCC1,active: 4.65 µM
3,COc1cc(/C=C/c2nc3ccccc3c(=O)[nH]2)cc(Br)c1O,"inconclusive: 2.33 µM [inhibitor, partial curve, poor fit]"
4,Cc1ccc(O)c(CNc2ccc(S(=O)(=O)Nc3nccs3)cc2)c1,inactive
5,CCC(C)(C)NC(=O)C(c1ccc(OC)cc1)N(C(=O)CCC(=O)Nc1cc(C)on1)c1ccc2c(c1)OCO2 (stereo not drawn),"inconclusive: 14.7 µM [inhibitor, single point]"
6,COc1ccccc1N1C(=O)c2cccc3c(C(=O)O)ccc(c23)C1=O,inactive
7,COc1ccc(C(O)CNc2ccc(C)cc2)cc1 (stereo not drawn),"inconclusive: 8.28 µM [inhibitor, single point]"
8,COc1ccc(C(CNC(=O)c2cc(S(=O)(=O)NCc3ccccc3)ccc2C)N2CCOCC2)cc1 (stereo not drawn),"inconclusive: 16.5 µM [inhibitor, single point]"
9,O=C(NCc1ccccc1)C12CN(Cc3ccccc3)CC1C(c1ccc([N+](=O)[O-])cc1)=NO2 (stereo not drawn),"inconclusive: 6.57 µM [inhibitor, partial curve, poor fit]"
10,O=C(Nc1nnc(SCc2ccc(F)cc2)s1)C1CC(=O)N(Cc2ccccc2)C1 (stereo not drawn),active: 7.38 µM
11,O=C1c2ccccc2C(=O)N1c1ncn[nH]1,inactive
12,CCOc1ccc(-n2c(SCC(=O)Nc3nccs3)nnc2-c2ccoc2C)cc1,"inconclusive: 18.5 µM [inhibitor, single point]"
13,CCN(CC)Cc1cc2[nH]c3c4ccc(Cl)cc4ncc3c2cc1OC,active: 0.0928 µM
14,CCN1CCN(C(=O)C2CCC(=O)N(Cc3cccc(C(F)(F)F)c3)C2)CC1 (stereo not drawn),"inconclusive: 18.5 µM [inhibitor, single point]"
15,Cn1c(SCC(=O)Nc2ccccc2-c2ccccc2)nnc1-c1ccco1,"inconclusive: 14.7 µM [inhibitor, single point]"
16,O=C(/C=C/Nc1ccc(F)c(F)c1)c1ccc(Br)cc1,inactive
17,CN(C)C(=O)N1CCN(S(=O)(=O)c2ccc3ccccc3c2)CC1,active: 10.4 µM
18,COc1ccc(C(F)(F)F)cc1NC(=O)c1nc2nc(C)cc(C(F)F)n2n1,"inconclusive: 18.5 µM [inhibitor, single point]"
19,Cc1ccc(C)c(OCCOCCN2CC(C)OC(C)C2)c1C (stereo not drawn),"inconclusive: 11.7 µM [inhibitor, single point]"
20,COc1ccc(C=C2C=C(C(C)(C)C)C(=O)C(C(C)(C)C)=C2)cc1OC,inactive
21,CCCCN1C(=O)CC(C(=O)OCC)=C1C,"inconclusive: 5.22 µM [inhibitor, partial curve]"
22,CC1Cc2ccccc2N1C(=O)CSc1nnnn1Cc1ccccc1 (stereo not drawn),inactive
23,CC(=O)Cc1nsc(NC(=O)c2ccc(Br)o2)n1,"inconclusive: 16.5 µM [inhibitor, single point]"
24,C=CCOc1ccc(/C=C/C(=O)OC(C)C(=O)Nc2ccc(NC(C)=O)cc2)cc1 (stereo not drawn),inactive
25,CCN1CCN(C(=S)NC(C)c2ccccc2)CC1 (stereo not drawn),active: 3.7 µM

# Two entries from above, tab-delimited:
row	SMILES	Potency
5	CCC(C)(C)NC(=O)C(c1ccc(OC)cc1)N(C(=O)CCC(=O)Nc1cc(C)on1)c1ccc2c(c1)OCO2 (stereo not drawn)	inconclusive: 14.7 µM [inhibitor, single point]
6	COc1ccccc1N1C(=O)c2cccc3c(C(=O)O)ccc(c23)C1=O	inactive

# Another view of some results above.
row	SMILES	Potency
11	Cc1ccc(N(CC(=O)NCc2cccs2)S(=O)(=O)c2cccs2)cc1	inconclusive: 11.7 µM [inhibitor, partial curve, poor fit]
1	O=C(O)c1ccccc1C(=O)OCCCCOC(=O)c1ccccc1C(=O)O	active: 14.7 µM

# Additional records:

row,SMILES,Potency
1,Cc1ccc(CNC(=O)CCCCCNC(=O)N2CCn3c2nc2ccccc23)cc1,inactive
2,COc1ccc2ccccc2c1CN1CCN(Cc2ccccc2)CC1,"inconclusive: 18.5 µM [inhibitor, single point]"
3,CC1(C(=O)Nc2ccc3c(c2)OCCO3)CC1(Cl)Cl (stereo not drawn),"inconclusive: 10.4 µM [inhibitor, partial curve, poor fit]"
4,N#C/C(=C(\O)c1ccco1)c1ccccn1,"inconclusive: 18.5 µM [inhibitor, single point]"
5,C/C(=N\N(Cc1ccccc1)c1ccccc1)c1cccnc1,active: 13.1 µM
6,CCCc1nc2c(o1)CC(CC(C)SCC)CC2=O (stereo not drawn),"inconclusive: 13.1 µM [inhibitor, single point]"
7,COc1ccc(-c2nc(C(N)=O)c3[nH]c(=O)n(-c4cccc(C)c4)c3n2)c(OC)c1,"inconclusive: 1.85 µM [inhibitor, full curve]"
8,CCOc1ccc(-n2c(SCC(=O)Nc3cc(C(=O)O)ccc3Cl)nc3ccccc3c2=O)cc1,"inconclusive: 11.7 µM [inhibitor, single point]"
9,O=C(Nc1cccc2ccccc12)N1CCCN(c2c(Cl)cncc2Cl)CC1,active: 5.86 µM
10,COc1ccc(Cl)cc1NC(=O)CN(C)C1CCS(=O)(=O)C1 (stereo not drawn),"inconclusive: 10.4 µM [inhibitor, single point]"
11,CCCCN(Cc1ccccc1)C1CCN(Cc2ccccc2)CC1,"inconclusive: 11.7 µM [inhibitor, single point]"
12,Cc1ccsc1C(=O)N(C)CC(=O)N(CC(C)C)c1c(N)n(CC(C)C)c(=O)[nH]c1=O,inactive
13,Nc1ccc(C(=O)NCC(=O)O)cc1,inactive and active: 9.28 µM
14,Cc1nn(CCCC(=O)Nc2nccs2)c(C)c1[N+](=O)[O-],"inconclusive: 18.5 µM [inhibitor, single point]"
15,COc1ccc(C)cc1NC(=O)CSc1nc2ccccc2nc1N1CCCC1,"inconclusive: 18.5 µM [inhibitor, single point]"
16,C=C(C)C(=O)N1CC2(CC(c3cccc(NC(=O)c4ccccc4)c3)=NO2)C[C@@H]1C(N)=O (stereo partly drawn),inactive
17,N#Cc1ccccc1OCC(=O)NCCNC(=O)COc1ccccc1C#N,"inconclusive: 0.522 µM [inhibitor, full curve, poor fit]"
18,COC(=O)c1ccsc1NC(=O)C1COc2ccccc2O1 (stereo not drawn),"inconclusive: 14.7 µM [inhibitor, partial curve, poor fit]"
19,Cc1cc(C)c2c(N)c(C(=O)Nc3c(C)n(C)n(-c4ccccc4)c3=O)sc2n1,"inconclusive: 13.1 µM [inhibitor, single point]"
20,CCC(=O)N1CCc2cc(Br)cc(S(=O)(=O)N3CCCC(C(=O)NC(C)(C)C)C3)c21 (stereo not drawn),"inconclusive: 9.28 µM [inhibitor, single point]"
21,O=C(CSc1ccc([N+](=O)[O-])cn1)Nc1ccc2[nH]c(=O)[nH]c2c1,active: 4.65 µM
22,COc1c(C)cccc1C(=O)Nc1ccc(OCC(=O)N2CCOCC2)cc1C,"inconclusive: 0.294 µM [inhibitor, full curve, poor fit]"
23,CC1CCCCN1C(=O)C(=O)c1cn(CC(=O)N2CCCC2)c2ccccc12 (stereo not drawn),"inconclusive: 18.5 µM [inhibitor, single point]"
